These are yes or no findings as the source states them, for the method shown. In cells and extracts the contact can be indirect. Where a sequence is shown, tags or fusion partners need not be part of it.

The text below walks through data of paper PMC7199855, “GRAF2, WDR44, and MICAL1 mediate Rab8/10/11–dependent export of E-cadherin, MMP14, and CFTR ΔF508” (The Journal of Cell Biology, 2020).

Test [1] addresses GFP-MICAL3 (human). Briefly: co-IP; transfected 293T, IP with α-GFP and Protein G Sepharose; 20 mM Hepes pH 7.4, 150 mM NaCl, 2 mM EDTA, 1% IGEPAL CA-630; Western blot.
Test [2] concerns the target GFP-Rab1 (canine). Described as above.

B1: untagged GRAF2 (protein, UniProt A1A4S6 1-786)
chain: MGLQPLEFSDCYLDSPWFRERIRAHEAELERTNKFIKELIKDGKNLIAATKSLSVAQRKFAHSLRDFKFEFIGDAVTDDERCIDASLREFSNFLKNLEEQREIMALSVTETLIKPLEKFRKEQLGAVKEEKKKFDKETEKNYSLIDKHLNLSAKKKDSHLQEADIQVEQNRQHFYELSLEYVCKLQEIQERKKFEFVEPMLSFFQGMFTFYHQGHELAKDFNHYKMELQINIQNTRNRFEGTRSEVEELMNKIRQNPKDHKRASQFTAEGYLYVQEKRPAPFGSSWVKHYCMYRKAAKKFNMIPFEHRSGGKLGDGEVFFLKECTKRHTDSIDRRFCFDIEAADRPGVSLTMQAFSEEERKQWLEALGGKEALSHSFNTAIIPRPEGNAQLDKMGFTIIRKCISAVETRGINDQGLYRVVGVSSKVQRLLSMLMDVKTCNEVDLENSADWEVKTITSALKQYLRSLPEPLMTYELHGDFIVPAKSGSPESRVNAIHFLVHKLPEKNKEMLDILVKHLTNVSNHSKQNLMTVANLGVVFGPTLMRPQEETVAALMDLKFQNIVVEILIENHEKIFRTPPDTTFPEPTCLSASPPNAPPRQSKRQGQRTKRPVAVYNLCLELEDGDNPYPSKEDTPTSSLDSLSSPSPVTTAVPGPPGPDKNHLLADGGSFGDWASTIPGQTRSSMVQWLNPQSPTTTSSNSAVTPLSPGSSPFPFSPPATVADKPPESIRSRKARAVYPCEAEHSSELSFEIGAIFEDVQTSREPGWLEGTLNGKRGLIPQNYVKLL
As to B1, the binding result in test [1] was “no binding”.

B2: untagged MICAL1 (protein, UniProt Q8TDZ2 1-1067)
chain: MASPTSTNPAHAHFESFLQAQLCQDVLSSFQELCGALGLEPGGGLPQYHKIKDQLNYWSAKSLWTKLDKRAGQPVYQQGRACTSTKCLVVGAGPCGLRVAVELALLGARVVLVEKRTKFSRHNVLHLWPFTIHDLRALGAKKFYGRFCTGTLDHISIRQLQLLLLKVALLLGVEIHWGVTFTGLQPPPRKGSGWRAQLQPNPPAQLANYEFDVLISAAGGKFVPEGFKVREMRGKLAIGITANFVNGRTVEETQVPEISGVARIYNQSFFQSLLKATGIDLENIVYYKDDTHYFVMTAKKQCLLRLGVLRQDWPDTNRLLGSANVVPEALQRFTRAAADFATHGKLGKLEFAQDAHGQPDVSAFDFTSMMRAESSARVQEKHGARLLLGLVGDCLVEPFWPLGTGVARGFLAAFDAAWMVKRWAEGAESLEVLAERESLYQLLSQTSPENMHRNVAQYGLDPATRYPNLNLRAVTPNQVRDLYDVLAKEPVQRNNDKTDTGMPATGSAGTQEELLRWCQEQTAGYPGVHVSDLSSSWADGLALCALVYRLQPGLLEPSELQGLGALEATAWALKVAENELGITPVVSAQAVVAGSDPLGLIAYLSHFHSAFKSMAHSPGPVSQASPGTSSAVLFLSKLQRTLQRSRAKENAEDAGGKKLRLEMEAETPSTEVPPDPEPGVPLTPPSQHQEAGAGDLCALCGEHLYVLERLCVNGHFFHRSCFRCHTCEATLWPGGYEQHPGDGHFYCLQHLPQTDHKAEGSDRGPESPELPTPSENSMPPGLSTPTASQEGAGPVPDPSQPTRRQIRLSSPERQRLSSLNLTPDPEMEPPPKPPRSCSALARHALESSFVGWGLPVQSPQALVAMEKEEKESPFSSEEEEEDVPLDSDVEQALQTFAKTSGTMNNYPTWRRTLLRRAKEEEMKRFCKAQTIQRRLNEIEAALRELEAEGVKLELALRRQSSSPEQQKKLWVGQLLQLVDKKNSLVAEEAELMITVQELNLEEKQWQLDQELRGYMNREENLKTAADRQAEDQVLRKLVDLVNQRDALIRFQEERRLSELALGTGAQG
Regarding B2, the binding entry in test [2] is given as “no binding”.

B3: GRAF1b-myc (protein, UniProt Q9UNA1-2 1-759)
chain: MGLPALEFSDCCLDSPHFRETLKSHEAELDKTNKFIKELIKDGKSLISALKNLSSAKRKFADSLNEFKFQCIGDAETDDEMCIARSLQEFATVLRNLEDERIRMIENASEVLITPLEKFRKEQIGAAKEAKKKYDKETEKYCGILEKHLNLSSKKKESQLQEADSQVDLVRQHFYEVSLEYVFKVQEVQERKMFEFVEPLLAFLQGLFTFYHHGYELAKDFGDFKTQLTISIQNTRNRFEGTRSEVESLMKKMKENPLEHKTISPYTMEGYLYVQEKRHFGTSWVKHYCTYQRDSKQITMVPFDQKSGGKGGEDESVILKSCTRRKTDSIEKRFCFDVEAVDRPGVITMQALSEEDRRLWMEAMDGREPVYNSNKDSQSEGTAQLDSIGFSIIRKCIHAVETRGINEQGLYRIVGVNSRVQKLLSVLMDPKTASETETDICAEWEIKTITSALKTYLRMLPGPLMMYQFQRSFIKAAKLENQESRVSEIHSLVHRLPEKNRQMLQLLMNHLANVANNHKQNLMTVANLGVVFGPTLLRPQEETVAAIMDIKFQNIVIEILIENHEKIFNTVPDMPLTNAQLHLSRKKSSDSKPPSCSERPLTLFHTVQSTEKQEQRNSIINSSLESVSSNPNSILNSSSSLQPNMNSSDPDLAVVKPTRPNSLPPNPSPTSPLSPSWPMFSAPSSPMPTSSTSSDSSPVSTPFRKAKALYACKAEHDSELSFTAGTVFDNVHPSQEPGWLEGTLNGKTGLIPENYVEFL
With B3, the binding entry in test [1] is on record as “no binding”.
